“Also recorded” adds a separate entry of the source.
Assay: Photolysis of peresters and analysis of photoproducts
Format: physicochemical
Settings: for deuterium incorporation in recovered perester: NMR; for deuterium incorporation in mesityl phenyl ketone product: mass spectrometry; for Norrish type II reaction / competing ketone photoreactions: irradiation
Procedure: The amount of perester used is in the range of 300-500 mg. The solutions are placed in Pyrex tubes, flushed with nitrogen for 10 min., and sealed with a rubber cap.
After the irradiation, the yield of CO2 is measured by applying N2 pressure and trapping the CO2 with a Ba(OH)2 solution. The photolyzed solutions are evaporated (in the case of perester Ia treatment with excess diazomethane gives the best separation procedure) and again evaporated. Chromatography over 2 mm silica gel plates (E. Merck) with dichloromethane as the developing solvent separates the products. Extraction of the silica gel is done with ether. The identity of each sample is confirmed by GLC or high-pressure LC by comparison with authentic samples or by melting points of the solids.
This is shown by comparison with an authentic sample and combination of spectroscopic techniques. […] The same product is formed when 4-benzoylbenzoic acid is irradiated for 2 hours in CH3 OH in 26% yield. The structure of this secondary photoproduct is shown by independent synthesis (reduction of methyl 4-benzoylbenzoate by NaBH4). Among other secondary photoproducts found in small amounts is a mixture of pinacols. These are confirmed by synthesis of a similar pinacol mixture upon irradiation of methyl 4-benzoylbenzoate in isopropyl alcohol.
After photolysis of tert-butyl-4-(2',4',6'-trimethylbenzoyl)perbenzoate (1c) (300 mg in 20 mL of CH3 OH) for 1 hour, the following products are found: 14.1% of CO2, 15.6% of phenyl mesityl ketone, 56.6% of starting perester, and 21.8% of the corresponding acid.
The recovered perester is irradiated again in cyclohexane solution (25 mL) for 4 hours. The following products are found: carbon dioxide, 44%; bicyclohexyl (21 mg); mesityl phenyl ketone (52%); and the corresponding acid, 46%.
After photolysis of tert-butyl-.rho.-butyrylperbenzoate (1e) (1 mmol in 30 mL of CH3 OH) for about 85 minutes, the following products are found: carbon dioxide, 11%; butyrophenone, 10% (confirmed by high-pressure LC): methyl .rho.-butyrylbenzoate (25%) (mp 83°-85° C. from hexane) confirmed by independent synthesis); and .rho.-butyrylbenzoic acid (52%) (confirmed by preparation of the methyl ester).

[1] = 300 mg in 20 mL of CH3 OH, 1 hour
[2] = recovered perester, cyclohexane (25 mL), 4 hours
[3] = cyclohexane, 2.4 × 10^-2 M, 6 h, 300 nm
[4] = methanol, 2.4 × 10^-2 M, 1 h, 300 nm
[5] = CH3 OH^d, […] 10^-2 M, 1 h, 300 nm
[6] = cyclohexane, 2.0 × 10^-2 M, 2.5 h, 300 nm
[7] = cyclohexane, 2.2 × 10^-2 M, 4 h, 300 nm
[8] = methanol, 4.2 × 10^-2 M, 1 h, 300 nm
[9] = 1 mmol in 30 mL of CH3 OH, about 85 minutes
[10] = methanol, 3.3 × 10^-2 M, 1.5 h, 300 nm

With Cc1cc(C)c(C(=O)c2ccc(C(=O)OOC(C)(C)C)cc2)c(C)c1 [1c, Tert-butyl-4-(2',4',6'-trimethylbenzoyl)perbenzoate] the “CO2 found after photolysis” value [1] was 14.1%, the “corresponding acid found after photolysis” value [1] was 21.8% and the “phenyl mesityl ketone found after photolysis” value [1] was 15.6%. The “starting perester found after photolysis” value [1] was 56.6%, the “deuterium incorporation in recovered perester” value was “no deuterium incorporation” and the “deuterium incorporation in mesityl phenyl ketone product” value was “No deuterium incorporation”. The “bicyclohexyl found after photolysis” value [2] was 21 mg, the “carbon dioxide found after photolysis” value [2] was 44% and the “corresponding acid found after photolysis” value [2] was 46%. For the same molecule, the “mesityl phenyl ketone found after photolysis” value [2] was 52%.

For O=C(O)c1ccc(C(=O)c2ccccc2)cc1 [4-benzoylbenzoic acid, reference compound], the “yield of photoproduct C6 H5 CHOH--p-C6 H4 COOH” value (irradiated for 2 hours in CH3 OH) was 26%.

In the case of CC(C)(C)OOC(=O)c1ccc(C(=O)c2ccccc2)cc1 [Ia, t-Butyl-4-Benzoylperbenzoate], the benzophenone product [3] is reported as 36 mol %, the benzoylbenzoic acid product [3] is reported as 55 mol % and the unreacted perester [3] is reported as 0 mol %. For the same molecule, the secondary photolysis products (irradiation in cyclohexane) was “bicyclohexyl as a secondary photolysis product”, the benzophenone product [4] was 29 mol % and the benzoylbenzoic acid product [4] was 60 mol %. For the same molecule, the unreacted perester [4] was 0 mol %.

For Cc1cc(C)c(C(=O)c2ccc(C(=O)OOC(C)(C)C)cc2)c(C)c1 [Ib, Tert-butyl-4-(2',4',6'-trimethylbenzoyl)perbenzoate], the benzophenone product [5] was 16 mol %, the benzoylbenzoic acid product [5] was 21 mol % and the unreacted perester [5] was 57 mol %. The “deuterium incorporation in recovered perester” value was “nor is there any deuterium in the recovered Ib; also recorded: no deuterium incorporation is observed”, the benzophenone product [6] was 20 mol % and the benzoylbenzoic acid product [6] was 27 mol %. The unreacted perester [6] was 29 mol %, the benzophenone product [7] was 43 mol % and the benzoylbenzoic acid product [7] was 46 mol %. The unreacted perester [7] was 0 mol %, the “Norrish type II reaction / competing ketone photoreactions” value was “photochemical perester decomposition from Ib is faster than is the intramolecular hydrogen abstraction” and the “deuterium incorporation in mesityl phenyl ketone product” value was “produces no deuterated mesitoyl”. The benzophenone product [8] was 19 mol %, the benzoylbenzoic acid product [8] was 13 mol % and the unreacted perester [8] was 61 mol %.

In the case of CCCC(=O)c1ccc(C(=O)OOC(C)(C)C)cc1 [Ie, Tert-butyl-.rho.-butyrylperbenzoate], the “butyrophenone found after photolysis” value [9] is reported as 10%, the “carbon dioxide found after photolysis” value [9] is reported as 11% and the “methyl p-butyrylbenzoate found after photolysis” value [9] is reported as 25%. For the same molecule, the “p-butyrylbenzoic acid found after photolysis” value [9] was 52%, the “Norrish type II reaction / competing ketone photoreactions” value was “no evidence for a competing Norrish type II reaction” and the “Norrish type II reaction / competing ketone photoreactions” value (listed as 1e) was “No products of a Norrish type II reaction are found”. The “benzophenone product (corresponding ketone)” value [10] was 10 mol %, the “benzoylbenzoic acid product (corresponding acid)” value [10] was 52 mol % and the unreacted perester [10] was 0 mol %.
